According to article PMC5496928, “Data driven polypharmacological drug design for lung cancer: analyses for targeting ALK, MET, and EGFR” (Journal of Cheminformatics, 2017):

The compounds below were run on EGFR (L858R) and EGFR (L858R, T790M) (assay: scanKINETIC conclusions stated in text for both EGFR forms together). Settings: two EGFR targets.
Type: binding
Description: Tests of the compounds confirm suitability for ALK + MET + EGFR polypharmacology optimization (Table 1). […] For compound 1, ^3 with the acrylamide function at the site corresponding to that of WZ4002, both ALK and MET binding were inhibited more weakly compared to EGFR binding. […] The sensitivity to the assay conditions seen for both forms of EGFR and uniformly tighter binding under the new assay conditions may indicate tighter binding for ALK and MET under these altered assay conditions as well.
The kinetics testing results (Table 1) support several further important conclusions. […] The simultaneous appearance of slow association and slow dissociation complicates the interpretation of the results, but the percentage values shown in Table 1 show the apparent residual amounts of compounds relative to bound values at 1 h. These values indicate retention of roughly half of compound 1, and nearly all of compound 2a, after dilution. […] The similarity of compound 2a to 2b and 1 with respect to structure and binding strength, differing only in the linker to the acrylamide binding group, is further evidence that that it is the covalent binding property that determines the difference in binding kinetics, rather than e.g. a slow conformational change of the target enzymes.
The three tricyclic compounds (1, 2a and 2b) were purchased from the company ARTTSynthesis (www.arttsynthesis.com). Tests for binding properties were performed by the company DiscoverX (www.discoverx.com), using a concentration of 1 µM against ALK, MET and EGFR variants L858R and L858R_T790M) using KdELECT and scanKINETIC from DiscoverX [124, 125].

With `C=CC(=O)Nc1cccc(Nc2nc(Nc3ccccc3)ncc2Cl)c1` [compound 1, N‐(3‐{[5‐chloro‐2‐(phenylamino)pyrimidin‐4‐yl]amino}phenyl)prop‐2‐enamide] as the compound, how does the “Kd tighter under scanKINETIC than in KdELECT assays” value (from here on “Kd tighter under scanKINETIC than”) read?
Its value is 4-7 fold.

With `C=CC(=O)Nc1cccc(Nc2ncc(Cl)c(Nc3ccccc3)n2)c1` [compound 2a, N‐(3‐{[5‐chloro‐4‐(phenylamino)pyrimidin‐2‐yl]amino}phenyl)prop‐2‐enamide] as the compound, how does the “Kd tighter under scanKINETIC than” value read?
Its value is “approximately 2 fold”.

`C=CC(=O)NCc1cccc(Nc2ncc(Cl)c(Nc3ccccc3)n2)c1` [compound 2b, N‐[(3‐{[5‐chloro‐4‐(phenylamino)pyrimidin‐2‐yl]amino}phenyl)methyl]prop‐2‐enamide] was tested. Which “Kd tighter under scanKINETIC than” value did it give?
Its value is 4-7 fold.
